Laboratory results: PMC3419649
No constants are given. Whether binding was seen depends on the method and setting. Binding seen in cells or lysates may run through a third protein. Some entries that bind do so weakly or less than the wild type.

Chains of the proteins cited; added tags and fusions are not shown.
UniProt P49950: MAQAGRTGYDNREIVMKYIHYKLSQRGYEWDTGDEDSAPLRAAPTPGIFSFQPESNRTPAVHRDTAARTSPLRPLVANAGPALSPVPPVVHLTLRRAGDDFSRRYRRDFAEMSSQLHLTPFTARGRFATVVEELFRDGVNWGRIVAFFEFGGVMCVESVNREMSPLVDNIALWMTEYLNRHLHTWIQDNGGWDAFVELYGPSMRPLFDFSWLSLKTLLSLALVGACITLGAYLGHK
UniProt Q63690: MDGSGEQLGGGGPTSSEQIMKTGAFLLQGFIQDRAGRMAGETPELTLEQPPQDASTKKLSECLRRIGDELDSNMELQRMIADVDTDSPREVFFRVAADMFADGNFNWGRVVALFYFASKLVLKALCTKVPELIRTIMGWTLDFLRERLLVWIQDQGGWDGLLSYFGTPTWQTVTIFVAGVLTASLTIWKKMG

Legend:
[1] = biological target: T1, Diva (rat (endogenous in PC12)) (UniProt Q99M66); test: proximity ligation; Duolink kit I on fixed PC12 cells (4% paraformaldehyde) with Diva and Bax/Bcl2 antibodies; cells treated with H2O2 (20 nM in the methods), 0 hr against 4 hr (Bax) or 8 hr (Bcl2); confocal microscopy
T1 sequence: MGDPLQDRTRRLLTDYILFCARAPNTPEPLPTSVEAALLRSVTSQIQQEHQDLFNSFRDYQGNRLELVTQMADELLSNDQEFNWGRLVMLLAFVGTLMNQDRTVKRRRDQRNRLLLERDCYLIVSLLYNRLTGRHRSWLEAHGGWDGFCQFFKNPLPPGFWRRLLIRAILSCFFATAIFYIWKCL

[2] = biological target: T1, Diva (rat (endogenous in PC12)); test: co-IP; endogenous proteins in PC12 protein extracts (M-PER) taken 0, 2, 4 and 8 hrs after 30 nM H2O2; Diva, Bcl2 or Bax antibody overnight at 4°C, Protein G Plus/Protein A agarose, 5 washes (10 mM Tris pH 7.4, 150 mM NaCl, 1% Triton X-100, EDTA, EGTA); western blot

Substance	binding [1]	binding [2]
Bcl2 (from UniProt P49950 1-236)	binds	binds
Bax (from UniProt Q63690 1-192)	binds	binds
